Reference: PubChem BioAssay AID2417 (National Center for Advancing Translational Sciences (NCATS), 2010)
About 4,300 (3.1%) of roughly 140,000 compounds were called active. The shares of active, inactive and inconclusive entries below differ from those in the screen.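 How the source made its calls: active means readout at or below -70, meaning at least 70% loss of cells showing the perinucleolar compartment, a nuclear body marking cancer cells; inconclusive means readout between -30 and a set limit; inactive means the rest.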

test: High Content Assay for Compounds that inhibit the Assembly of the Perinucleolar Compartment; conditions: PC3M PTB-GFP, PNC prevalence imaging, 16 h; at 10 µM; stronger effect = lower value;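 further: plate controls were DMSO wells for no effect and camptothecin positive control wells for full effect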
How it was run: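 Compounds are pinned in duplicate onto adhered PC3M cells stably expressing GFP-tagged PTB and incubated 16 h at 37 C. Cells are then fixed, nuclei stained with Hoechst, and PNC-positive cells counted.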

Structure (SMILES)	activity change (PNC), negative = inhibition
COC(=O)CCC(=O)Nc1ccc(NC(=O)CCC(=O)OC)cc1	inactive: -7.13%
COC(=O)c1ccc(CSc2nc3cc(Cl)ccc3s2)o1	inconclusive: -47.8%
O=C(Nc1cccc(S(=O)(=O)N2CCCCC2)c1)c1ccc2ccccc2n1	inactive: -8.79%
CC(=O)Nc1ccc(OCC(O)CN2C(C)(C)CC(O)CC2(C)C)cc1 (centres undefined)	inconclusive: -36%
Cc1cccc(NC(=O)c2sc(Cl)nc2-c2ccccc2)c1	inconclusive: -44.9%
Nn1c(SC/C=C/c2ccccc2)nnc1-c1ccncc1	inactive: -1.29%
CC(=O)c1cc2c(cc1NC(=O)CCCC(=O)O)OCO2	inactive: 23.3%
Cc1nc2ccc(NC(=O)N(C)c3ccccc3)cc2s1	inconclusive: -60.1%
Cc1ccc2nc(SC(C)C(=O)Nc3cccc([N+](=O)[O-])c3)[nH]c2c1 (centres undefined)	active: -83.6%
CCCCNC(=O)CSc1nnc(-c2ccco2)n1C	inconclusive: -62.4%
Cc1nonc1OCCNc1ccc([N+](=O)[O-])cc1[N+](=O)[O-]	inactive: 52.6%
COc1ccc(OCC(=O)NNC(=O)c2cc3ccccc3o2)cc1	inconclusive: -74.8%
COc1cc(C(=O)Nc2cccc(-c3nc4cc(C)cc(C)c4o3)c2)cc(OC)c1OC	inconclusive: -59.2%
Cc1ccc(CN2C(=O)/C(=C\c3ccc(C(=O)NCc4cccnc4)cc3)Oc3ccccc32)cc1	inconclusive: -77.8%
CC(NC(=O)C12CC3CC(CC(C3)C1)C2)c1ccc2c(c1)OCCO2 (centres undefined)	inactive: 31.1%
S=C(Nc1ccc(Cl)cc1)NC1CC2CCCC(C1)N2C1CC1 (centres undefined)	inconclusive: -63.4%
CCC(=O)c1ccc(OCc2ccc(C(=O)OC)cc2)cc1	inconclusive: -48.1%
Cc1ccc(S(=O)(=O)N2CCN(C(=O)c3cc4c(C)nn(-c5ccccc5)c4s3)CC2)cc1	inconclusive: -35.3%
O=C(/C=C/c1ccc(F)cc1)Nc1nc2ccccc2[nH]1	inconclusive: -38.4%
Cc1cc(NC(=O)CC23CC4CC(C2)CC(CC(=O)Nc2cc(C)on2)(C4)C3)no1	active: -92.2%
COc1ccc(CC(=O)N2N=C(C)CC2(O)c2cccnc2)cc1 (centres undefined)	inconclusive: -31.5%
Brc1ccc(-c2nn3c(Cc4ccccc4)nnc3s2)o1	inconclusive: -52.5%
COc1ccc(CCN2C(=O)NC(NC(=O)CC(C)C)(C(F)(F)F)C2=O)cc1OC (centres undefined)	inconclusive: -73%

Structure (SMILES)	activity change (PNC), negative = inhibition
COc1ccc(S(=O)(=O)NC2CCCCC2)cc1C	inconclusive: -74.1%
CCOC(=O)c1ccc(NC2OC(=O)c3ccccc32)cc1 (centres undefined)	active: -93.8%
COc1cc(OC)cc(-n2nnnc2SCC(=O)N2CCCc3ccccc32)c1	inconclusive: -67.1%
COc1ccc(OC)c(-c2nc(C(N)=O)c3[nH]c(=O)n(-c4ccc(F)cc4)c3n2)c1	inconclusive: -50.6%
CSc1ccc(OC2CCN(Cc3ccccc3)CC2)cc1	inconclusive: -68.4%
COCCN(C(=S)Nc1c(C)cc(C)cc1C)C(C)c1cccnc1 (centres undefined)	inactive: -11.6%
CCOC(=O)N1CCN(C(=O)c2cc(-c3ccc(OCC)cc3)nc3ccccc23)CC1	active: -95.4%
COc1ccc(N2CCN(c3ncnc4c3[nH]c3ccccc34)CC2)cc1	inactive: -14.2%
Cc1cccc(C(C)Nc2ccc([N+](=O)[O-])cn2)c1 (centres undefined)	inactive: -27.9%
O=C(C1CCN(S(=O)(=O)c2cccs2)CC1)N1CCN(c2ccccc2)CC1	inconclusive: -70.9%
O=C1CC(C(=O)Nc2ccc(F)cc2)S/C(=N\N=C\c2ccco2)N1 (centres undefined)	inconclusive: -77.8%
O=C(Nc1cccc(F)c1)N(Cc1ccc(Cl)cc1)CC(O)C(F)(F)F (centres undefined)	inconclusive: -52.4%
S=c1nc(-c2ccccc2)n(CCN2CCOCC2)c2c1CCCC2	inconclusive: -36.1%
COc1ccc(C(CC(=O)c2ccc(C)cc2)C(C#N)C#N)cc1OC (centres undefined)	inactive: 19.5%
Cc1cccc(NS(=O)(=O)c2ccccc2)n1	inconclusive: -61.9%
CCN1CCN(Cc2nc3c(c(=O)n(C)c(=O)n3C)n2C(C)C(C)=O)CC1 (centres undefined)	inactive: -28.7%
Cc1cccc(C2C3=C(Nc4[nH]n(-c5ccccc5)c(=O)c42)c2ccccc2C3=O)c1 (centres undefined)	inactive: -28.8%
Cc1nc2ccccc2n1CC(O)COC1CCCCC1 (centres undefined)	inconclusive: -34.6%
Cn1cccc1Cc1nnc(SCC(=O)N2CCCCCC2)n1CCc1ccccc1	inactive: -5.75%
O=Nc1ccc(NOC(=O)c2ccccc2)cc1	inactive: -27.7%
CCOc1ccccc1N1CC(C(=O)Nc2ccc(C(=O)O)cc2)CC1=O (centres undefined)	inconclusive: -66.3%
COCCOC(=O)C1=C(C)Nc2cc(=O)[nH]c(=O)n2C1c1cccc([N+](=O)[O-])c1 (centres undefined)	active: -109%
O=C1CSC(c2ccc(F)cc2)N1c1nnc(C23CC4CC(CC(C4)C2)C3)s1 (centres undefined)	inconclusive: -48.4%

Ordered by molar mass (falling): five of the compounds above
Structure (SMILES)	activity change (PNC), negative = inhibition
O=C(C1CCN(S(=O)(=O)c2cccs2)CC1)N1CCN(c2ccccc2)CC1	inconclusive: -70.9%
O=C1CSC(c2ccc(F)cc2)N1c1nnc(C23CC4CC(CC(C4)C2)C3)s1 (centres undefined)	inconclusive: -48.4%
COCCOC(=O)C1=C(C)Nc2cc(=O)[nH]c(=O)n2C1c1cccc([N+](=O)[O-])c1 (centres undefined)	active: -109%
CSc1ccc(OC2CCN(Cc3ccccc3)CC2)cc1	inconclusive: -68.4%
Cc1cccc(C(C)Nc2ccc([N+](=O)[O-])cn2)c1 (centres undefined)	inactive: -27.9%

Continued.

Structure (SMILES)	activity change (PNC), negative = inhibition
Cc1ccc(-n2nnnc2SCC(=O)Nc2nc(-c3ccc(F)cc3)cs2)cc1C	inconclusive: -36.6%
COC(=O)c1cn(C)c2ccc(S(=O)(=O)N3CCCC3)cc2c1=O	active: -109%
Cc1cccc(Nc2ncc3c(n2)CC(c2ccco2)CC3=O)c1 (centres undefined)	inconclusive: -37.3%
CCCN1C2CCCC1CC(NC(=O)c1ccccc1F)C2 (centres undefined)	inactive: 13%
Cc1cc(C(F)(F)F)c(C#N)c(N2CCOCC2)n1	inconclusive: -34.6%
CCCc1cc(=O)oc2cc3oc(C)c(C)c3cc12	inconclusive: -30.1%
CCOC(=O)N1CCN(C(=O)c2ccc(NS(C)(=O)=O)cc2)CC1	inconclusive: -50.8%
O=C(Nc1ccc(F)cc1)c1cc(S(=O)(=O)N2CCCCC2)cs1	inactive: -24.3%
O=C(Cn1nc(-c2ccccc2)ccc1=O)NCCN1CCN(c2cccc(Cl)c2)CC1	inconclusive: -33.4%
CC(C)(C)c1ccc(C(=O)NCCCN2CCN(CCCNC(=O)c3ccc(C(C)(C)C)cc3)CC2)cc1	inactive: 76.5%
CC(=O)Nc1nc2c(c3c1c(=O)oc1ccccc13)CC(C)CC2 (centres undefined)	active: -100%
O=S(=O)(Nc1nc2ccccc2nc1Cl)c1ccc2ccccc2c1	inconclusive: -36.3%
COc1cc2c(cc1OC)-c1cc(N3CCCCCC3)nc(=O)n1CC2	inactive: -8.36%
Cn1c(=O)[nH]c(=O)c2c1nc(SCCN1CCOCC1)n2Cc1ccccc1	inconclusive: -43%
O=C(CCN1CCOCC1)NCC1COc2ccccc2O1 (centres undefined)	inconclusive: -49.1%
O=C(COC(=O)c1cc(C(F)(F)F)cc(C(F)(F)F)c1)NCc1ccc(Cl)cc1	inconclusive: -47.7%
C=CCc1ccccc1OCC(O)CN1CCN(Cc2ccc3c(c2)OCO3)CC1 (centres undefined)	inconclusive: -79.2%
CCn1c(SCC(=O)C(C)(C)C)nnc1-c1cnccn1	active: -100%
[2H]c1c([2H])c([2H])c(-c2nc(N3CCCCCC3)sc2C(=O)c2ccccc2)c([2H])c1[2H]	inactive: 80.2%
COc1cc(C(c2c(C)[nH][nH]c2=O)c2c(C)[nH][nH]c2=O)ccc1OCc1ccc([N+](=O)[O-])cc1	inconclusive: -30.4%
N#Cc1nc(COc2ccccc2)oc1N1CCN(Cc2ccccc2)CC1	inconclusive: -45.1%
Cc1ccc(C(=O)Nc2nc3ccc(S(C)(=O)=O)cc3s2)o1	inconclusive: -43.7%
COc1cc(C(=O)N2CCN=C2c2ccccc2)cc(OC)c1OC	active: -100%

Structure (SMILES)	activity change (PNC), negative = inhibition
CCOC(=O)CC1ON(C)C(=O)N1c1ccc(Cl)cc1Cl (centres undefined)	inactive: 19%
CC[n+]1c(/C=C/C=C/N(C(C)=O)c2ccccc2)sc2ccccc21	inactive: 69%
COc1ccccc1C1C2C(=O)N(c3ccccc3)C(=O)C2ON1c1ccccc1 (centres undefined)	inconclusive: -44.4%
O=C(CSc1ncn[nH]1)Nc1ccccc1-c1ccccc1	inactive: -3.05%
Cc1cccc(OCC(=O)N/N=C/CC(C)c2ccccc2)c1C (centres undefined)	inactive: 35.9%
O=c1c(Oc2ccccc2F)coc2cc(OCc3cnn(-c4ccccc4)c3)ccc12	inconclusive: -32%
Cc1oc(-c2ccccc2F)nc1CS(=O)(=O)CC(=O)N1CCN(c2ccccc2)CC1	inactive: -2.35%
O=c1cc(-c2ccccc2)[nH]c2cc(Cl)ccc12	active: -119%
CCOC(=O)c1c(NC(=O)CSc2nnc(-c3ccccc3)n2CC)sc(C(C)=O)c1C	inconclusive: -53.3%
COc1ccc(S(=O)(=O)N(C)CC(=O)Nc2ccccc2OC)cc1C	inconclusive: -55.6%
COC(=O)C1CCN(c2nc3ccccc3nc2C(C#N)C(=O)NCCc2ccccc2)CC1 (centres undefined)	inactive: 9.18%
C[N+](C)(C)CCOC(=O)C1(c2ccccc2)CCCC1	inconclusive: -34.6%
CC(=O)Nc1ccc(C(=O)CS(=O)(=O)c2ccc(C)cc2)cc1	inconclusive: -47.7%
CC(=O)c1c(C(C)=O)c(C)n(-c2ccc(N)c(C)c2)c1C	inconclusive: -53%
Cc1cccc(NC(=O)c2sc(-c3ccccc3)nc2-c2ccc([N+](=O)[O-])cc2)c1	active: -100%
CC(C)CCNC(=O)NC(=O)CSc1nnc2ccccn12	inconclusive: -36.6%
C/C(=N\NC(=O)c1ccn(C)n1)c1ccc(NC(=O)C2CCCC2)cc1	inconclusive: -52.2%
CSc1ccccc1NC(=O)CN(c1cc(C)cc(C)c1)S(C)(=O)=O	inconclusive: -36.3%
CCCn1c(CN2CCN(C)CC2)nc2ccccc21	inactive: -6.95%
C=CCOC(=O)c1[nH]c2c(c1C)C(=O)CC(c1ccco1)C2 (centres undefined)	inactive: -29.2%
